Laboratory results published in PubChem BioAssay AID485314 (National Center for Advancing Translational Sciences (NCATS), 2010).
In all, about 340,000 compounds went through this assay and about 4,500 (1.3%) were called active. The inconclusive results got no clear call from the source; some entries with a clear call stand among them for comparison. Calls come from the whole dose curve; as a rule, active = well fitted inhibition curve with a large enough effect; inconclusive = small, poorly fitted or top-dose-only effect, or another doubt; inactive = no such curve, though single readings can be large or run the other way. Potencies beside an inconclusive call are fits to weak or partial responses and may not hold up.

These compounds were tested against DNA polymerase beta (Homo sapiens) (UniProt P06746) (assay: qHTS Assay for Inhibitors of DNA Polymerase Beta). Settings: Pol beta primer extension/strand displacement, fluorescence kinetic; activity change, negative = inhibition: at 114 µM (top of the series).
How it was run: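 Preincubation: enzyme (10 nM) with compound, 15 min, RT. Reaction: substrate added to 50 nM final. Reads: 0 and 10 min. Analysis: normalized, Hill fit.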
% is set by controls: 0 for no effect and ±100 for the full control effect; potency is the fitted concentration of half-maximal effect.

Potency, inconclusive:
Cc1nnc(SCc2ccc(CSc3nnc(C)c(=O)[nH]3)cc2)[nH]c1=O 79.4 µM [inhibitor, single point]
CCC(C)NC(=O)c1cc2c(=O)[nH]c3ccc(C)cc3c2s1 (stereo not drawn) 50.1 µM [inhibitor, partial curve]
CCOc1cc(/C=C2\SC(=Nc3ccc(CC)cc3)NC2=O)ccc1OCC(=O)O 70.8 µM [inhibitor, single point]
Cn1c(SCC(=O)NCc2ccc3c(c2)OCO3)nc2scc(-c3cccs3)c2c1=O 12.6 µM [inhibitor, full curve]
CN1CCN(CCCN2c3ccccc3Sc3ccc(C(F)(F)F)cc32)CC1 4.47 µM [inhibitor, single point]
O=C(N/N=C/c1ccc(-c2ccccc2)o1)c1ccccc1O 12.6 µM [inhibitor, full curve, poor fit]
CCO[C@@H]1OC(C(=O)NCc2ccccc2)=C[C@H](c2csc3ccccc23)[C@H]1CCCO 56.2 µM [inhibitor, partial curve]
CCC(CC)NC(=O)CC(c1ccccc1)c1ccccc1 79.4 µM [inhibitor, partial curve]
CSc1ccc(CNC(=O)c2cc3c(=O)n(Cc4ccco4)ccc3nc2C)cc1 17.8 µM [inhibitor, full curve]
CCOc1ccc(C(C(=O)NC2CCCCC2)N(C(=O)Cc2cccs2)c2ccc(-n3cnnn3)c(OC)c2)cc1 (stereo not drawn) 100 µM [inhibitor, single point]
Cc1cc(C)cc(N2CN=c3s/c(=C\c4ccco4)c(=O)n3C2)c1 31.6 µM [inhibitor, full curve]
Brc1cccc(C2Nc3cccc4cccc(c34)N2)c1 3.98 µM [inhibitor, full curve]
OCC1(Cc2ccccc2C(F)(F)F)CCN(Cc2ccccc2)CC1 1 µM [inhibitor, full curve, poor fit]
CCn1cc(CNC(=O)c2cc(COc3ccc(F)cc3F)on2)cn1 35.5 µM [inhibitor, single point]
CCOC(=O)C1CCC(CN(Cc2c(Cl)cccc2Cl)S(=O)(=O)c2ccc(F)cc2)CC1 (stereo not drawn) 89.1 µM [inhibitor, single point]
CCOC(=O)c1cn2ccc(C)cc2n1 1.58 µM [inhibitor, full curve, poor fit]
Cc1ccccc1C(=O)NC(=S)NCCc1ccccc1 79.4 µM [inhibitor, single point]
CCc1ccc(OCC(=O)Nc2ccc(S(=O)(=O)N3CCCC3)cc2)c(Br)c1 1 µM [inhibitor, full curve]
Cc1c(NC(=O)c2ccc(N3CCC(C)CC3)c([N+](=O)[O-])c2)cccc1-c1nc2ccccc2o1 1 µM [inhibitor, full curve, poor fit]
O=C(c1cccc(F)c1)N1CCN(C(=O)c2cc3ncc(Br)cn3n2)CC1 28.2 µM [inhibitor, full curve]
COc1ccc(-c2nnc(NC(=O)C3CCCO3)s2)cc1 (stereo not drawn) 89.1 µM [inhibitor, single point]
Nc1ccc(-c2ccc(N)cc2C(F)(F)F)c(C(F)(F)F)c1 79.4 µM [inhibitor, single point]
O=C(Cn1cc([N+](=O)[O-])cn1)NCc1ccco1 89.1 µM [inhibitor, single point]
c1ccc2c(c1)OCC(c1nn3c(Cn4nnc5ccccc54)nnc3s1)O2 (stereo not drawn) 15.8 µM [inhibitor, full curve]
COc1ccc(/C=C2/C(=O)N(c3ccccc3)N=C2C)cc1OC 39.8 µM [inhibitor, single point]
Cc1nnc2sc(-c3ccc(N(C)C)cc3)nn2c1=O 56.2 µM [inhibitor, partial curve]
Cn1c(NC(=O)c2cccs2)c(-c2cccs2)c(=O)c2ccccc21 2 µM [inhibitor, single point]
CCCc1nc2oc(C(=O)c3ccccc3)c(N)c2c2c1COC(C)(C)C2 100 µM [inhibitor, single point]
C=CCNC(=O)NC(=O)Cn1c(=O)c2c(ncn2CC)n(Cc2ccccc2)c1=O 79.4 µM [inhibitor, single point]
CN(C)Cc1c(-c2ccc(Cl)cc2)nc2ccccn12 39.8 µM [inhibitor, single point]
NC(=O)c1ccccc1NC(=O)Nc1cccc2ccccc12 39.8 µM [inhibitor, partial curve, poor fit]
Cc1[nH]c2ccccc2c1/C=N/NC(=O)c1cc(-c2cccs2)[nH]n1 22.4 µM [inhibitor, full curve]
Cc1occc1-c1nnc(-c2cc([N+](=O)[O-])cc([N+](=O)[O-])c2)o1 28.2 µM [inhibitor, partial curve]
CC(=O)c1c(O)cc(O)cc1CC(=O)O 39.8 µM [inhibitor, single point]
CC(=O)Nc1ccc(NS(=O)(=O)c2ccc(C)cc2)cc1[N+](=O)[O-] 89.1 µM [inhibitor, single point]
CCOC(=O)Cc1csc(-n2sc3ccccc3c2=O)n1 15.8 µM [inhibitor, full curve]
Cc1cc(Cl)ccc1NC(=O)CN1C(=O)C(=O)c2ccccc21 2.82 µM [inhibitor, full curve, poor fit]
CC(/C=C/C=C/c1ccccc1)=N/NC(=O)CNc1ccccc1C 89.1 µM [inhibitor, single point]
COc1ccc(OC)c(/C=N/NC(=O)CCc2ccc(O)c(O)c2)c1 89.1 µM [inhibitor, single point]
Cc1cc(O)c(S(=O)(=O)c2ccccc2)c(C)c1NS(=O)(=O)c1ccccc1 31.6 µM [inhibitor, full curve, poor fit]

Some of these compounds in order of heavy-atom count, descending:
Potency, inconclusive:
CCOc1ccc(C(C(=O)NC2CCCCC2)N(C(=O)Cc2cccs2)c2ccc(-n3cnnn3)c(OC)c2)cc1 (stereo not drawn) 100 µM [inhibitor, single point]
Cc1c(NC(=O)c2ccc(N3CCC(C)CC3)c([N+](=O)[O-])c2)cccc1-c1nc2ccccc2o1 1 µM [inhibitor, full curve, poor fit]
CCOC(=O)C1CCC(CN(Cc2c(Cl)cccc2Cl)S(=O)(=O)c2ccc(F)cc2)CC1 (stereo not drawn) 89.1 µM [inhibitor, single point]
CSc1ccc(CNC(=O)c2cc3c(=O)n(Cc4ccco4)ccc3nc2C)cc1 17.8 µM [inhibitor, full curve]
CCc1ccc(OCC(=O)Nc2ccc(S(=O)(=O)N3CCCC3)cc2)c(Br)c1 1 µM [inhibitor, full curve]
CCn1cc(CNC(=O)c2cc(COc3ccc(F)cc3F)on2)cn1 35.5 µM [inhibitor, single point]
Cc1[nH]c2ccccc2c1/C=N/NC(=O)c1cc(-c2cccs2)[nH]n1 22.4 µM [inhibitor, full curve]
Cc1cc(C)cc(N2CN=c3s/c(=C\c4ccco4)c(=O)n3C2)c1 31.6 µM [inhibitor, full curve]
Cc1occc1-c1nnc(-c2cc([N+](=O)[O-])cc([N+](=O)[O-])c2)o1 28.2 µM [inhibitor, partial curve]
CCC(C)NC(=O)c1cc2c(=O)[nH]c3ccc(C)cc3c2s1 (stereo not drawn) 50.1 µM [inhibitor, partial curve]
COc1ccc(-c2nnc(NC(=O)C3CCCO3)s2)cc1 (stereo not drawn) 89.1 µM [inhibitor, single point]
Brc1cccc(C2Nc3cccc4cccc(c34)N2)c1 3.98 µM [inhibitor, full curve]
O=C(Cn1cc([N+](=O)[O-])cn1)NCc1ccco1 89.1 µM [inhibitor, single point]
CC(=O)c1c(O)cc(O)cc1CC(=O)O 39.8 µM [inhibitor, single point]

Next part:

Potency, active:
COc1ccc(NC(=O)c2ccc(NCCN3C(=O)CCC3=O)c([N+](=O)[O-])c2)cc1 12.6 µM
O=C(CSc1nnc(-c2cccc(S(=O)(=O)N3CCCC3)c2)n1-c1ccccc1)Nc1ccc(C(=O)O)cc1 31.6 µM
O=C(Nc1ccc2nc(-c3ccco3)c(-c3ccco3)nc2c1)N1CCN(c2ccccn2)CC1 1.58 µM
Cc1ncc(CO)c2c1Oc1nc(-c3ccccc3)nc(SCC(=O)Nc3cccc(C(F)(F)F)c3)c1C2 35.5 µM
Cc1ccc(-n2c(O)c(/C=N/Nc3ccc(S(=O)(=O)N4CCOCC4)cc3[N+](=O)[O-])c3ccccc3c2=O)c(C)c1 79.4 µM
CCc1ccccc1NC(=O)C1CCN(C2=NS(=O)(=O)C(c3ccc(C)c(C)c3)=C2C)CC1 12.6 µM
Cc1ccc2nc(-c3ccc(NC(=O)c4ccco4)cc3)[nH]c2c1 25.1 µM
Cc1ccc(NC(=O)CN2C(=O)S/C(=C\c3cc(Cl)c(OCC(=O)O)c(Cl)c3)C2=O)cc1 39.8 µM

Activity change, negative = inhibition, inconclusive:
O=S(=O)(CCc1ccncc1)Cc1ccc2c3c(cccc13)CC2 -38% [inhibitor]
COc1ccc2oc(=O)cc(-c3cc4cccc(OC)c4o3)c2c1 -74.6% [inhibitor]
COc1ccc(-c2coc3c(C)c4oc(=O)c(CCC(=O)O)c(C)c4cc23)cc1 -69.3% [inhibitor]
COc1ccc(S(=O)(=O)Nc2nc3ccccc3nc2NCC2CCCO2)cc1 (stereo not drawn) -32.9% [inhibitor]
COc1ccc(-c2csc(N(Cc3ccco3)C(=O)c3cccs3)n2)cc1 -35.4% [inhibitor]

Activity change, negative = inhibition, inactive:
O=C(CCNS(=O)(=O)c1ccc2[nH]c(=O)oc2c1)NCc1ccccc1 -6.68%
COCCn1c(SCC(=O)NCc2ccccc2)nnc1-c1ccco1 0.545%
Cc1ccc(N2CC(NC(=O)c3ccc4c(c3)OCO4)CC2=O)cc1 (stereo not drawn) -2.99%
CC1C(=O)N2CCCc3cc(S(=O)(=O)N(C)Cc4ccccc4)cc1c32 (stereo not drawn) 2.51%
O=S(=O)(c1ccc(F)cc1)N1CCc2ccccc2C1 32.1%
O=C(NC(NC1CCS(=O)(=O)C1)C(=O)c1cccs1)c1ccccc1 (stereo not drawn) 11.8%
Cc1cc(NC(=O)CSc2nc3c(C)cccc3cc2C)no1 6.36%
C#CCOCCOCCOCCNc1nc(N2CCOCC2)nc(N2CCN(C(=O)[C@H](Cc3cc4ccccc4[nH]3)n3cc([C@@H](N)C(C)CC)nn3)CC2)n1 (stereo partly drawn) -7.13%
COc1ccc(-c2csc(NC(=O)CC(NC(C)=O)c3ccccc3)n2)cc1OC (stereo not drawn) -70.6%
Cc1cc(C)cc(NC(=O)c2sc3nc(-c4cc5ccccc5oc4=O)[nH]c(=O)c3c2C)c1 -6.38%
CC(C)(C)C1CCc2c(sc(NC(=O)c3ccncc3)c2C(=O)Nc2ccccc2Cl)C1 (stereo not drawn) -1.35%
Cc1ccc(/C=N/Nc2nc3ccccc3s2)o1 1.51%
COCCNC(=O)C1CC(c2ccc(F)cc2)=NO1 (stereo not drawn) -5.73%
COc1ccc(Br)cc1CNC(=O)c1ccc2c(c1)nc1n2CCCCC1 5.13%
CCc1ccc(S(=O)(=O)c2nnn3c2nc(N2CCCC(C)C2)c2cc(Cl)ccc23)cc1 (stereo not drawn) 5.42%
